Laboratory results: PubChem BioAssay AID504774 (Drosophila RNAi Screening Center, 2011)
Aim: 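Fly genes whose loss alters survival after alkylation damage to DNA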 (primary screen). System: Drosophila Kc167 cells. Knock-down reagent: long dsRNA against Drosophila genes, about 0.25 µg dsRNA per well. Duration: about 6 days: 3 days knock-down, then 3 days with or without MMS. Conditions: methyl methanesulphonate 0.004% (w/v) for 3 days after knock-down. Measured: 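Viability in wells given MMS, read as ATP luminescence, normalised by quantiles plate by plate and averaged across replicates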. Reading the numbers: mean viability with MMS and viability with MMS: higher = more surviving cells after MMS.
The deposit covers about 23,000 reagents; shown is a random part of those that have a named target and a result. 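Values are quantile-normalised luminescence on an arbitrary scale; higher means more cells surviving MMS.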 Names joined by + are all predicted targets of the reagent.

gene	amplicon	mean viability with MMS	viability with MMS, replicate 1	viability with MMS, replicate 2
CG43996 (GeneID 32689)	DRSC19456	3.45e6	3.91e6	3.90e6
CG43996 (GeneID 32689)	DRSC19457	3.50e6	4.01e6	3.94e6
CG8343 (GeneID 35544)	DRSC04905	3.57e6	4.29e6	3.94e6
MFS15 (GeneID 37168)	DRSC06523	3.34e6	3.70e6	3.84e6
Gr59b (GeneID 117484)	DRSC04179	3.54e6	3.94e6	4.11e6
Cyp28c1 (GeneID 32138)	DRSC20236	3.57e6	4.12e6	3.96e6
CG18788 (GeneID 59164)	DRSC02697	3.54e6	4.04e6	3.99e6
Trs20 (GeneID 39769)	DRSC10489	3.64e6	4.22e6	4.02e6
CG8677 + CG31626	DRSC01838	3.55e6	4.02e6	4.02e6
CG14406 (GeneID 32421)	DRSC19592	3.45e6	3.92e6	3.90e6
spi (GeneID 35253)	DRSC03618	3.50e6	3.97e6	3.97e6
Cul2 (GeneID 35420)	DRSC03710	3.78e6	4.25e6	4.53e6
Pu (GeneID 37415)	DRSC04645	3.26e6	3.58e6	3.29e6
kl-3 (retired record) (GeneID 5740653)	DRSC20730	2.46e6	4.17e6	4.02e6
kl-3 (retired record) (GeneID 5740653)	DRSC20891	3.51e6	3.96e6	4.02e6
kl-3 (retired record) (GeneID 5740653)	DRSC20934	2.27e6	3.95e6	3.79e6
CG5986 (GeneID 192506)	DRSC15931	3.50e6	3.94e6	4.00e6
CG10209 (GeneID 36652)	DRSC05980	3.47e6	3.86e6	3.98e6
CG11771 (GeneID 42984)	DRSC14379	3.50e6	4.01e6	3.92e6
CG7882 (GeneID 35520)	DRSC04899	3.55e6	4.08e6	3.99e6
cd (GeneID 42681)	DRSC16157	3.74e6	4.32e6	4.14e6
CG13244 (GeneID 34940)	DRSC21642	3.44e6	3.94e6	3.90e6
CG9346 (GeneID 37381)	DRSC04542	3.59e6	3.91e6	4.12e6
CG6766 (GeneID 34619)	DRSC02991	3.59e6	4.01e6	3.81e6
CG15576 (GeneID 31369)	DRSC18064	3.56e6	4.00e6	4.10e6
CG15177 (GeneID 40810)	DRSC12557	3.68e6	4.23e6	4.08e6
GC1 (GeneID 41448)	DRSC15322	3.47e6	3.98e6	3.93e6
CG3860 (GeneID 37825)	DRSC04425	3.46e6	4.09e6	3.92e6
IntS10 (GeneID 38444)	DRSC08173	3.50e6	3.98e6	3.97e6
CG12992 (GeneID 32733)	DRSC19512	3.49e6	3.87e6	4.03e6
CG14710 (GeneID 41393)	DRSC14933	3.62e6	4.11e6	4.15e6
CG3548 (GeneID 37932)	DRSC04387	3.53e6	3.97e6	3.93e6
CG14237 (GeneID 43194)	DRSC14731	3.43e6	3.86e6	3.87e6
CG14237 (GeneID 43194)	DRSC23239	3.71e6	4.16e6	4.27e6
Osi18 (GeneID 40775)	DRSC12181	3.47e6	3.95e6	3.95e6
CG42594 (GeneID 8674091)	DRSC18053	2.44e6	3.32e6	3.30e6
CG42594 (GeneID 8674091)	DRSC18408	3.56e6	4.11e6	3.99e6
CG42594 (GeneID 8674091)	DRSC22978	2.48e6	2.62e6	2.84e6
CG9254 (GeneID 34773)	DRSC01969	3.57e6	4.16e6	3.93e6
KFase (GeneID 33907)	DRSC03258	3.39e6	3.77e6	3.84e6
hth (GeneID 41273)	DRSC16967	3.64e6	4.02e6	4.16e6
CG42527 (retired record) + Hr4	DRSC18495	3.74e6	4.11e6	4.31e6
CG42527 (retired record) + Hr4	DRSC22269	2.54e6	3.69e6	3.68e6
CG42527 (retired record) + Hr4	DRSC22677	3.36e6	3.92e6	3.84e6
CG42527 (retired record) + Hr4	DRSC23080	3.49e6	4.03e6	3.93e6
CG42527 (retired record) + Hr4	DRSC23251	2.92e6	2.65e6	3.72e6
